Construct, isoform or probe ends are uncertain for at least one entry. At least one verdict rests on a figure or table, not on a statement of the authors.

Chains of the proteins cited; added tags and fusions are not shown. Residues count along the entry.
UniProt P51608, 90-181: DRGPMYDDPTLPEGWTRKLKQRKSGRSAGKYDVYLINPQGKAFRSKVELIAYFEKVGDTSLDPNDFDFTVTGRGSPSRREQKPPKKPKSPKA

The source of these data is PMC13103736.

The target of this data set is MECP2 wt (Homo sapiens) (UniProt P51608). Kind of data set: EMSA. To be noted: 2 nM DNA; 5mC at position 12 of strand 2 (CpA strand); MECP2 EMSA: 20 mM HEPES, 30 mM KCl, 1 mM EDTA, 1 mM (NH4)2SO4, 0.2% Tween-20, pH 7.3, 1 mM DTT, 3.4 uM poly(A):poly(T), 21 C 20 min; recombinant protein; residues 90-181; label: 5'-FAM strand 1.

“AAAAAAAAAAATGAAAAAAAAAAA (double strand) [mCpA 24-mer dA/dT duplex (o4277+o4278)]”: the binding result is reported as “binds”.
